{
  "sequences": {"note": "The chains behind the UniProt entries cited, without tags or fusion partners. Where a name states a change or a piece, a line headed by the entry shows the natural chain unless it says otherwise. A line that says so, or that is headed by a name, gives the form on record, which may keep a tag or linker.", "UniProt P61586": "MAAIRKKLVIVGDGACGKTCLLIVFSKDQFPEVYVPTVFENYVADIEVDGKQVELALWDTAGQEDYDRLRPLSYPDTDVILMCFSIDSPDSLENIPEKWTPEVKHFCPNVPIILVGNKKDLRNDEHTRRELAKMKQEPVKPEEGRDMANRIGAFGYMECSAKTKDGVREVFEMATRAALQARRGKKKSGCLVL", "constitutively active HA-RhoA-L30 (P61586, form named)": "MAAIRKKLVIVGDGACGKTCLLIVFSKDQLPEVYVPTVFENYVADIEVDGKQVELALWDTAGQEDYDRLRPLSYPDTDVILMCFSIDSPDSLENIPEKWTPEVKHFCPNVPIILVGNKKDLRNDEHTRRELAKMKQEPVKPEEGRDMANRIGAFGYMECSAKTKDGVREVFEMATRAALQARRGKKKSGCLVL"},
  "source": "paper doi:10.1101/2020.07.02.185298",
  "biological_target": "T1, LOK-CTD-GFP-Flag (LOK_310-968-GFP-Flag) (UniProt O94804)",
  "T1 sequence": "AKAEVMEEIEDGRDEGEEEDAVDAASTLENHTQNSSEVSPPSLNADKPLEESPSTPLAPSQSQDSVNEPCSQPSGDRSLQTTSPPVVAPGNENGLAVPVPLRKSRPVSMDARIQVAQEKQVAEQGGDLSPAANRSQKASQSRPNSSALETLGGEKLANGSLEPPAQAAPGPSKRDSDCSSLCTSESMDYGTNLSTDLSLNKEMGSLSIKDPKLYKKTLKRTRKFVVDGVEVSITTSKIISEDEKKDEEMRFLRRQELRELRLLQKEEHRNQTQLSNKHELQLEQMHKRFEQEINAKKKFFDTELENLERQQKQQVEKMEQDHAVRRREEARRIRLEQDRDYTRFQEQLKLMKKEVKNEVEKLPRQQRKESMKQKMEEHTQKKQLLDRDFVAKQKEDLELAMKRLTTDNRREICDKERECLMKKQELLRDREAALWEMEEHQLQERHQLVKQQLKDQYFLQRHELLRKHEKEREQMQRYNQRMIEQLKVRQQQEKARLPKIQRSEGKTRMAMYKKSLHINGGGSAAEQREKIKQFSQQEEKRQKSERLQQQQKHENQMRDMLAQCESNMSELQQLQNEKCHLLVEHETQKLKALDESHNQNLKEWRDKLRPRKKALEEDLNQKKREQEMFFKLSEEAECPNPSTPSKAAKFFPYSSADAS",
  "assay": "co-IP",
  "note": "These are yes or no findings as the source states them, for the method shown. Binding seen in cells or lysates may run through a third protein. Some results given as binding are weak or reduced against the parent protein; the word gives no strength. Where a sequence is shown, tags or fusion partners need not be part of it.",
  "data": [
    {"substance": "constitutively active HA-RhoA-L30 (from UniProt P61586 1-193)", "values": [
      {"measurement": "binding", "value": "binds"}
    ]}
  ]
}
